Measured values reported in EP4799634A2.
No constants are given. Whether binding was seen depends on the method and setting. Some results given as binding are weak or reduced against the parent protein; the word gives no strength. Each block holds one binder with its values, some of them ahead of it.

The chains behind the UniProt entries cited, without tags or fusion partners. Where a name states a change or a piece, a line headed by the entry shows the natural chain unless it says otherwise. A line that says so, or that is headed by a name, gives the form on record, which may keep a tag or linker. Residues count along the entry.
TNFa mutant Y119A (P01375, form named): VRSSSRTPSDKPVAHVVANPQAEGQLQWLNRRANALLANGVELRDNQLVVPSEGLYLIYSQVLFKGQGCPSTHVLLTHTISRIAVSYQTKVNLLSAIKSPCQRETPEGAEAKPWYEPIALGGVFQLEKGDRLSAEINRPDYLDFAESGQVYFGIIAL
TNFa mutant Y119R (P01375, form named): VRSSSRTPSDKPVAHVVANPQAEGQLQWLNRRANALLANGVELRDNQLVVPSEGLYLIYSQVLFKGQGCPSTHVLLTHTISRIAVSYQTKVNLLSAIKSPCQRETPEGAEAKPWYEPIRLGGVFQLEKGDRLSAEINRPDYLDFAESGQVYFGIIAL
UniProt O35235, residues 158-316: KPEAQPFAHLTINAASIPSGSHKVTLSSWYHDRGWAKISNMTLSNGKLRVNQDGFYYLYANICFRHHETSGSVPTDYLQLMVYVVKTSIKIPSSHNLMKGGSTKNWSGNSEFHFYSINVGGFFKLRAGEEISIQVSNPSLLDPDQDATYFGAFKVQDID

How the values were obtained:
TNFa mutant Y119A [1] = target: TNFa mutant Y119A (UniProt P01375); experiment: Octet RED96 (bio-layer interferometry)
TNFa mutant Y119R [2] = target: TNFa mutant Y119R (UniProt P01375); experiment: Octet RED96 (bio-layer interferometry)
TNFa mutant Y119A [3] = target: TNFa mutant Y119A (UniProt P01375); experiment: ELISA OD450nm on the Y119 mutants (Figure 12A)
TNFa mutant Y119R [4] = target: TNFa mutant Y119R (UniProt P01375); experiment: ELISA OD450nm on the Y119 mutants (Figure 12A)
mouse RANKL (mouse) = mouse RANKL (mouse) (UniProt O35235); experiment: ELISA, protocols similar to example 2.2

binding (TNFa mutant Y119A [1]): binds
binding (TNFa mutant Y119R [2]): binds
binding (TNFa mutant Y119A [3]): binds
binding (TNFa mutant Y119R [4]): binds
B1: N11 (designed binder)
chain: MVKVKFVMFGKEKEVDTSKIVHVMRQGKLVHFWYEDNGKIDKGFVPEKDAPKELLDMLARAEREK

binding (mouse RANKL (mouse)): binds
B2: F10 (designed binder)
chain: VKVKFRSDGEEKEVDTSKILLVARQGKIVMFGYDDNGKPGIGLVWEKDDPKELLDMLARAERGK
